The target in one assay is T1, GFRa1/Fc (UniProt P56159).
T1 sequence: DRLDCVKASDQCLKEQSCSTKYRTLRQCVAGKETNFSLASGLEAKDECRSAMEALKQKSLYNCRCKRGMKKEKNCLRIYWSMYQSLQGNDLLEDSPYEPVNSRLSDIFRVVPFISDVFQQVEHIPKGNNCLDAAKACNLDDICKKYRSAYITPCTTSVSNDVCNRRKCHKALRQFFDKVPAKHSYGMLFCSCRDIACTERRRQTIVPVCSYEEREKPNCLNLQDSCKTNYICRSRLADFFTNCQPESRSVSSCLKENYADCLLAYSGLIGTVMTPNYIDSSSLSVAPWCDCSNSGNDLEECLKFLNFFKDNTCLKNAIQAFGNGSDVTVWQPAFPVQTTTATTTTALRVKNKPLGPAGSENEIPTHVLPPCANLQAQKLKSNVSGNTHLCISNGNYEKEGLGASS
Put plainly: SPR; reverse binding experiment: GFRa1/Fc and GFRa2/Fc (0.113 μM) immobilised on a CM4 chip; artefin (15.6 μM) injected; Biacore 2000, 25°C, HBS-EP; both purified.

The target in a further assay is T2, GFRa2/Fc (UniProt O00451).
T2 sequence: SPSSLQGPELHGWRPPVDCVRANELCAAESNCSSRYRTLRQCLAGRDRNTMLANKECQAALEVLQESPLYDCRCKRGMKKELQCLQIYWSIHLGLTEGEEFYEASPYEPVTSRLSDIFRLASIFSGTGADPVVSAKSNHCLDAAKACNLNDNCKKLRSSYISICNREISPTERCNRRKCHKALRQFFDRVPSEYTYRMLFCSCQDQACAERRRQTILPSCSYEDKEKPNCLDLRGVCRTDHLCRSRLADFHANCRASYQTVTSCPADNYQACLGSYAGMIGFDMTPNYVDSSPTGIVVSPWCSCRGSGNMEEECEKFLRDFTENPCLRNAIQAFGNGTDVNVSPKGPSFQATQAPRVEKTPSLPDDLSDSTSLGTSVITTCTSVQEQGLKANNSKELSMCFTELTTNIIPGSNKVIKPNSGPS
Described as above.

The source of these data is article PMC6396024, “Artemin and an Artemin-Derived Peptide, Artefin, Induce Neuronal Survival, and Differentiation Through Ret and NCAM” (Frontiers in Molecular Neuroscience, 2019).

No constants are given. Whether binding was seen depends on the method and setting. Some results given as binding are weak or reduced against the parent protein; the word gives no strength. Tags and fused reporters may be left off the sequences shown.

With RSPHDLSLASLLGAG (four monomers coupled to a lysine backbone (tetramer)) [artefin, ARTN-derived peptide synthesized as a tetramer (dendrimer) on a lysine backbone], the binding result in the assay with GFRa1/Fc and with GFRa2/Fc was “binds” in each case.
